Substrate in the data set: C=C1CC[C@H](O)C/C1=C/C=C1\CCC[C@]2(C)[C@@H]([C@H](C)CCCC(C)C)CC[C@@H]12
Briefly: not read. The following applies: other: substrate in 0.45% cyclodextrin; pH 7.4; 37.0 °C.

B1: cytochrome P450scc (Bos taurus) (protein)
chain: ISTKTPRPYSEIPSPGDNGWLNLYHFWREKGSQRIHFRHIENFQKYGPIYREKLGNLESVYIIHPEDVAHLFKFEGSYPERYDIPPWLAYHRYYQKPIGVLFKKSGTWKKDRVVLNTEVMAPEAIKNFIPLLNPVSQDFVSLLHKRIKQQGSGKFVGDIKEDLFHFAFESITNVMFGERLGMLEETVNPEAQKFIDAVYKMFHTSVPLLNVPPELYRLFRTKTWRDHVAAWDTIFNKAEKYTEIFYQDLRRKTEFRNYPGILYCLLKSEKMLLEDVKANITEMLAGGVNTTSMTLQWHLYEMARSLNVQEMLREEVLNARRQAEGDISKMLQMVPLLKASIKETLRLHPISVTLQRYPESDLVLQDYLIPAKTLVQVAIYAMGRDPAFFSSPDKFDPTRWLSKDKDLIHFRNLGFGWGVRQCVGRRIAELEMTLFLIHILENFKVEMQHIGDVDTIFNLILTPDKPIFLVFRPFNQDPPQA
On to B1, for which the Km was 30 ± 2 µM.

The Km is the substrate concentration at which the rate is half of its maximum.

The values are drawn from patent publication US20120258938A1, “Enzymatic Production or Chemical Synthesis and Uses for 5,7-Dienes and UVB Conversion Products Thereof” (priority 2008, published 2012).
